Patent US20150299298A1 (TRELLIS BIOSCIENCE, published 2015)
These are yes or no findings as the source states them, for the method shown.

Chains of the proteins cited; added tags and fusions are not shown. Residues count along the entry.
UniProt P02769, residues 25-607: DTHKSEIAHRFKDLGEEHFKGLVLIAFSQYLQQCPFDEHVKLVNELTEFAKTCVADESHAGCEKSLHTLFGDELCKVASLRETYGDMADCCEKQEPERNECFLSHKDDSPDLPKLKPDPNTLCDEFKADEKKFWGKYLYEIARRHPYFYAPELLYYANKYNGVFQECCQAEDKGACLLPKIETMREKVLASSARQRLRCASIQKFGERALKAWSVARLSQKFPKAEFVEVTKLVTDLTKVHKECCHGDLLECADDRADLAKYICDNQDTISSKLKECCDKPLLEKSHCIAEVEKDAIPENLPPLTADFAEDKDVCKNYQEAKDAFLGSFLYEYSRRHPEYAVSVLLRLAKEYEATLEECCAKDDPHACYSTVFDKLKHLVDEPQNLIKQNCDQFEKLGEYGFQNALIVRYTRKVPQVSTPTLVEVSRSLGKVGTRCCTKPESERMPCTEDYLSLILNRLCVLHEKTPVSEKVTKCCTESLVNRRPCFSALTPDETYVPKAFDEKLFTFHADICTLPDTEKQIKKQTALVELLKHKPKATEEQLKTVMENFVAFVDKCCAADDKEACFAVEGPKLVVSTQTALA

Target: BSA (UniProt P02769)
Assay: ELISA on plate-coated antigen, OD 450 nm against TRL1330 [nM]

binding: no binding (tested: about 20 nM)
B1: TRL1330 (antibody, V domains shown)
VH: QVQLVESGTEVKNPGASVKVSCTASGYKFDEYGVSWVRQSPGQGLEWMGWISVYNGKTNYSQNFQGRLTLTTETSTDTAYMELTSLRPDDTAVYYCATDKNWFDPWGPGTLVTVSS
VL: DIVLTQSPSASGSPGQSITISCTGTNTDYNYVSWYQHHPGKAPKVIIYDVKKRPSGVPSRFSGSRSGNTATLTVSGLQTEDEADYYCVSYADNNHYVFGSGTKVTVL
